Reference: PMC9750878

Amino acid sequences for entries named in this document (tags omitted).
UniProt P62140: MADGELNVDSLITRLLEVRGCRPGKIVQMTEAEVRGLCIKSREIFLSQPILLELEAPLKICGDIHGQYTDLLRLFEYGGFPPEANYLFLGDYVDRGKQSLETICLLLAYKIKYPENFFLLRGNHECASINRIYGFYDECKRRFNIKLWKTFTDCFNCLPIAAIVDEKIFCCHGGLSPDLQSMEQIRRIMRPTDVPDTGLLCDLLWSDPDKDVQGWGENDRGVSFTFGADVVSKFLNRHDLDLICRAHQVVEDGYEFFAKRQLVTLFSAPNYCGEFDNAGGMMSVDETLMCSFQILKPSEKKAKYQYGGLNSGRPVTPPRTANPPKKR

Biological target: T1, EYFP-tagged AATK (apoptosis-associated tyrosine kinase), wild type (UniProt Q6ZMQ8)
T1 sequence: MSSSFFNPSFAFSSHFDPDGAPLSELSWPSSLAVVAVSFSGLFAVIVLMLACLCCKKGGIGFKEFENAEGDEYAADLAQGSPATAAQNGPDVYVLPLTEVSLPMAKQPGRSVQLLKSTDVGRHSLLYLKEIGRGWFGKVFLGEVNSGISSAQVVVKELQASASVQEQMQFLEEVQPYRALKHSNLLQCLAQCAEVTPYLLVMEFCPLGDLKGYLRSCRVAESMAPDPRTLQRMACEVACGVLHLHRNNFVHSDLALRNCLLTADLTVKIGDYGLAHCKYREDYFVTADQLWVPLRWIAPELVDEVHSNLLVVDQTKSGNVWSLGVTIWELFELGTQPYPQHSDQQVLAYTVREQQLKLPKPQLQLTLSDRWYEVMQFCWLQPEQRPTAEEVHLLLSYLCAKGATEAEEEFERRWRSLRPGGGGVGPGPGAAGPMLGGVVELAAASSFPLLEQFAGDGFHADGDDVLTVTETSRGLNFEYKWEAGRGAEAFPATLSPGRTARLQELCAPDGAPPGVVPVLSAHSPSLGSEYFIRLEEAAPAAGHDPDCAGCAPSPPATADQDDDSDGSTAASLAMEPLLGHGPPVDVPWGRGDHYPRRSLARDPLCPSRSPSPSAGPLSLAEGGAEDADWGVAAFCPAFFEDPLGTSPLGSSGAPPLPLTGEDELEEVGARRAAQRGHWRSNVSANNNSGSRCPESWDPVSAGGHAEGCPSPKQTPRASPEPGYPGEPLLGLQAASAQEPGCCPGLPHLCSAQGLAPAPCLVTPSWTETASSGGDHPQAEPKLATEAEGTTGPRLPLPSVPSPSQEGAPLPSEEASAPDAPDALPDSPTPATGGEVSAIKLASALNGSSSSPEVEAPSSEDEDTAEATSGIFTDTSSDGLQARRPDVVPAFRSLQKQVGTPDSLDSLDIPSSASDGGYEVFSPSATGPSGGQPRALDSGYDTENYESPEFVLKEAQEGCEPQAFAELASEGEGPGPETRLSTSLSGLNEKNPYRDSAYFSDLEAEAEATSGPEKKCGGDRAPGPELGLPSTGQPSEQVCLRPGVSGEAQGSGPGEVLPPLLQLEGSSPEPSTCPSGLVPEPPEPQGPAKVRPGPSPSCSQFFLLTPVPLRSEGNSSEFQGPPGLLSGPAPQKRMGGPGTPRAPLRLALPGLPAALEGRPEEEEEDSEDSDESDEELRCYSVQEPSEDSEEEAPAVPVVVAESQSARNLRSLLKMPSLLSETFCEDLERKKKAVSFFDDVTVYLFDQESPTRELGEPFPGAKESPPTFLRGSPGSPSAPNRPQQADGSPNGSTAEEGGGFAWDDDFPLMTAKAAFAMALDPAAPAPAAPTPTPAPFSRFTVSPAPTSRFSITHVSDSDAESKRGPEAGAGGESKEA
Assay: affinity purification with mass spectrometry; AATK-EYFP vs. EYFP-empty overexpressed in HEK293T cells (24 h); pulldown by GFP Trap (ChromoTek); quantitative mass spectrometry (MaxQuant); three replicate experiments

Question: For PPP1CB (from UniProt P62140 1-327), which binding is on record?
Answer: Its binding is “binds”.

Results are given in words; binding and its absence hold for the method and conditions named. Binding seen in cells or lysates may run through a third protein. Here binding means that the protein was enriched with, or labelled near, the bait; the list need not be complete. Sequences can lack the tags named with a protein.
